## Results of single-concentration screens

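Whole-cell growth test on Mycobacterium tuberculosis, read after 3 days in glucose-containing 7H9 medium; the read-out is not stated. Concentration: 50 µM. Higher reads as more growth inhibition (inferred: compounds with an IC50 in retests scored well above the rest). About 69,000 compounds were tested under these conditions; 1.1% (about 760) showed 50% or more at least once.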

Results are given as percent effect. The controls that fix the scale are not given in the record; negative values are as filed. Compounds were drawn at random from those tested, without regard to their results. Two or more numbers in one place are separate tests of the same structure; such repeats can differ widely.

* CN(Cc1ccco1)C(=O)CN1CCN(C)c2ccccc2C1 : 8.043%
* CCC(SC)C(=O)N1CCC(n2cccn2)CC1 (stereo unspecified) : -6.742%
* COc1ccccc1C(=O)Nc1c(F)c(C(=O)N2CCCC2)nn1C : -9.917%
* Cc1nc(=O)c2ccccc2n1C1=CCN(CC(=O)N2CCCC2)CC1 : -13.12%
* COCCCN(C)C(=O)c1nnn(-c2ccccc2Cl)c1C : 3.637%
* [H][C@@]12CCN(S(C)(=O)=O)[C@]1([H])CC[C@H](C(=O)NCc1ccco1)O2 : 4.452% and -5.247%
* [H][C@@]12CCN(S(=O)(=O)C3CC3)[C@@]1([H])CCN2C(=O)c1ccco1 : 12.11%
* Cc1nccn1C1(C(=O)O)CCN(Cc2ccc3nsnc3c2)CC1 : 14.18%
* O=C(N1CCC(O)(C(F)(F)F)C1)C1(c2cccc(Cl)c2)CC1 (stereo unspecified) : -14.02%
* COc1cc(C(=O)NCc2ccc3c(c2)CCCN3C)cc(OC)c1Br : 18.47%
* O=C(O)C(F)(F)F.O=C(c1cccnc1)N1CCC2(CCN(C(=O)c3ccco3)CC2)C1 : -14.62%
* CCN(C(=O)CCc1ccc2[nH]ccc2c1)C1CC(=O)NC1=O (stereo unspecified) : -20.8%
* Cc1ccc(CN2CCCC(c3nnc(CN4CCCC4)n3C)C2)s1 (stereo unspecified) : -17.23%
* CCN1CCN(c2ccc(CNC(=O)Cc3c(C)noc3C)cn2)CC1 : -4.941%
* O=C1CC2(CCCCN2C(=O)c2ccoc2)CN1Cc1ccccc1 (stereo unspecified) : 11.31%
* O=C(Nc1nccs1)NC1CCN(Cc2ccccc2)C1 (stereo unspecified) : -23.59%
* COc1ccccc1NC(=O)c1ccc(C)n1C : 5.292%
* Cc1ccnc(NCCCN2CCc3ccccc32)n1 : 6.369% and 29.06%
* O=C1NCC(C(=O)Nc2ncc(Cc3ccc(F)cc3F)s2)N1 (stereo unspecified) : 6.539%
* CNCc1n[nH]c(=O)n1-c1ccccc1Oc1ccccc1 : -20.66%
* OC1(CNCCN2CCc3ccccc32)CNCCOC1 (stereo unspecified) : 27.73% and 35.44%
* Cn1ccc(C(=O)N2CCC(Cc3cnc4[nH]ccc4c3)CC2)n1 : 17.91%
* CCn1c(CC2CCN(C(=O)C3COCCO3)CC2)nn(C)c1=O (stereo unspecified) : -27.9%
* CCOc1ccccc1C(=O)Nn1c(C)cc(C)cc1=O : 1.089%
* COC(=O)CC(c1cccc(OC(F)F)c1)c1oc(C)cc(=O)c1O (stereo unspecified) : -3.273%
* Cn1cncc1-c1nnc([C@H]2CCN(CC3CCCCC3)C2)o1 : 0.0887% and 27.73%
* CC(c1nc(C2CC2)no1)N1CCN(Cc2ccccc2F)CC1 (stereo unspecified) : 32.17%
* COCCN1CCCC12CCN(Cc1cccnc1OC)CC2.O=C(O)C(F)(F)F.O=C(O)C(F)(F)F : -33.73% and -10.49%
* CCC(=O)NC1CCN(c2cccc(CC)c2)CC1 : -2.301%
* CN(C)c1ncc(-c2cc(C(=O)O)n(CC3CC3)c2)cn1 : 5.471%
* O=C(O)C(F)(F)F.O=C(O)C(F)(F)F.[H][C@@]12C[C@H](C(=O)NC3CC3)CN(Cc3ccc4ccccc4n3)[C@]1([H])CCO2 : -26.86%
* Cc1nc(C)n(CC2CCCN2CCOc2ccc(F)cc2)n1 (stereo unspecified) : -3.61%
* O=C(O)C(F)(F)F.O=C(O)C(F)(F)F.[H][C@@]12COC[C@]1(COCc1ccccn1)CN(c1cc(OC)ncn1)C2 : -18.12%
* Cc1ccc(N2Cc3nc(=O)n(C(C)C)n3C2=O)cc1 : 20.99%
* CCC1CCCN(S(=O)(=O)c2cnc3onc(C)c3c2)C1 (stereo unspecified) : 22.24% and 37.02%
* Cc1ccccc1S(=O)(=O)NC(=O)C1(c2cccc(Cl)c2)CC1 : -9.47%
* CN1CC2(CCN(C(=O)c3ccc(-n4cccn4)cc3Cl)C2)OC1=O (stereo unspecified) : -15.92%
* O=C(NC1CCCCNC1=O)c1cc2ccccc2[nH]c1=O (stereo unspecified) : 0.2784% and 2.24%
* CCN(CC)S(=O)(=O)CCNC(=O)N(C)C(C)c1ccccn1 (stereo unspecified) : 2.943%
* O=C(Cc1ccsc1)N1CCCC2(COCCN(CC3CC3)C2)C1.O=C(O)C(F)(F)F (stereo unspecified) : -10.69% and -8.04%
* Cc1nc2cc(C(=O)N3C[C@@H](C(=O)O)[C@H](C4CC4)C3)ccc2[nH]1 : 11.87%
* COc1ccc(F)c(CN2CCC(c3cc(O)nc(C)n3)C2)c1.O=C(O)CC(O)(CC(=O)O)C(=O)O (stereo unspecified) : -10.01%
* O=C(c1ccc[nH]1)N1CCCn2c(nnc2Cn2cccn2)C1 : -3.759%
* CN(C)CCOCc1nnc2n1CCN(Cc1ccco1)C2.O=C(O)C(F)(F)F.O=C(O)C(F)(F)F : -8.536% and -2.729%
* COc1ccc(CN2CCCn3cnc(COCC4CC4)c3C2)cc1.O=C(O)C(F)(F)F : -8.842% and -2.249%
* CCCC1(CO)CCCN(C(=O)CNC(C)=O)C1 (stereo unspecified) : 13.52%
* CN(C)c1ncc(CN2CCOC(C(=O)Nc3ccccc3)C2)cn1 (stereo unspecified) : -0.8013%
* COCC(=O)N1CCCC(C(=O)N(C)CCCc2cnn(C)c2)C1 (stereo unspecified) : 9.458%
* [H][C@@]12CS(=O)(=O)C[C@]1([H])N(C(=O)c1snnc1C)CCN2CC1CC1 : -7.035%
* Cc1cc(NC(C)c2nncn2C2CCCC2)n2nc(C)c(C)c2n1 (stereo unspecified) : -2.626% and 2.46%
* Cn1ccnc1-c1cccc(NC(=O)NCCN2CCOCC2)c1 : -2.004% and -3.562%
* Cc1cnc(CN(C)C2CCN(CC(=O)N(C)c3nccs3)C2)o1 (stereo unspecified) : -50.61%
* O=C(O)C(F)(F)F.O=C(O)C(F)(F)F.O=C(O)C(F)(F)F.c1cncc(CN2CCC3(CC2)CC(c2cccnc2)CO3)c1 (stereo unspecified) : 5.442%
* COc1cccc(Nc2nc(C3CCNCC3)c3sc(C)c(C)n23)c1.Cl : -20.69%
* CS(=O)(=O)NCc1cncc2c1CCN(C(=O)c1ccccn1)C2 : -16.31%
* O=C(c1cnc(NCCC2CCCO2)c(Cl)c1)N1CCOCC1 (stereo unspecified) : 2.085%
* CCn1nc(C)c2nnn(CC(=O)Nc3cccc(F)c3)c(=O)c21 : -2.096%
* CC(C)c1nc(O)c2nnn(C[C@@H]3CCCN(Cc4ccsc4)C3)c2n1 : 15.08%
* CCS(=O)(=O)NCCNCc1ccc(Cl)c2cccnc12 : -27.66%
* Cc1nc(CN2CCc3ncnc(C4CCOC4)c3CC2)cs1.O=C(O)C(F)(F)F (stereo unspecified) : -3.339% and 2.449%

Source: ChEMBL document CHEMBL3988442, “University of Dundee, Small-Polar-MMV Screening Library” (2021).